Assay results: article PMC12320246
No constants are given. Whether binding was seen depends on the method and setting. In cells and extracts the contact can be indirect. Some results given as binding are weak or reduced against the parent protein; the word gives no strength. Where a sequence is shown, tags or fusion partners need not be part of it.

The chains behind the UniProt entries cited, without tags or fusion partners.
UniProt O00425: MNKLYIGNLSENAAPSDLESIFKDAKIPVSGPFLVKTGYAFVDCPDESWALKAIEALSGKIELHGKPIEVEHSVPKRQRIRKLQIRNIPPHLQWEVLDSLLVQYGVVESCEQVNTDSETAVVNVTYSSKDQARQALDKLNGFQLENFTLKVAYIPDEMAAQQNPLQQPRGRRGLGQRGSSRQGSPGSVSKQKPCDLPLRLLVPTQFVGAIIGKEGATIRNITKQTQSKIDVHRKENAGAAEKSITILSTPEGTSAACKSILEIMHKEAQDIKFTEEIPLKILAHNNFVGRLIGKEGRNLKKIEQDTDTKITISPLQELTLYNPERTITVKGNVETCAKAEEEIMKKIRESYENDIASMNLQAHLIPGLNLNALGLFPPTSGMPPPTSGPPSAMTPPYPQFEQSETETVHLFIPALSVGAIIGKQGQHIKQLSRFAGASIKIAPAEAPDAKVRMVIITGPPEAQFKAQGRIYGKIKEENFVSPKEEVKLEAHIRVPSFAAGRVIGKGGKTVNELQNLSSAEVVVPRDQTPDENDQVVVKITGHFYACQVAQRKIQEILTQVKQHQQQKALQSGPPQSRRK

Target: Flag-tagged IGF2BP3 (IGF2BP3^Flag) (UniProt O00425)
Assay: co-IP; HEK293T cells co-transfected with His-tagged OLFML1 and Flag-tagged IGF2BP3 constructs (whole or truncated); IP with anti-Flag or anti-His; immunoblot with anti-Flag or anti-His

binding: binds
B1: OLF-like truncation of His-OLFML1 (Olfactomedin-like domain, amino acids 140-402) (domain or fragment, UniProt Q6UWY5 140-402)
chain: SCDNMLMGIKSLKIVKKMMDTHGSWMKDAVYNSPKVYLLIGSRNNTVWEFANIRAFMEDNTKPAPRKQILTLSWQGTGQVIYKGFLFFHNQATSNEIIKYNLQKRTVEDRMLLPGGVGRALVYQHSPSTYIDLAVDEHGLWAIHSGPGTHSHLVLTKIEPGTLGVEHSWDTPCRSQDAEASFLLCGVLYVVYSTGGQGPHRITCIYDPLGTISEEDLPNLFFPKRPRSHSMIHYNPRDKQLYAWNEGNQIIYKLQTKRKLPLK
